{
  "source": "paper doi:10.1101/2021.07.18.452621",
  "test_in_all_cases": "co-IP",
  "key": {"[1]": {"biological_target": "T1, SadA AIS-KA1 fragment (343-636 aa) in psfGFP-C1 (mouse) (UniProt Q69Z98)", "T1 sequence": "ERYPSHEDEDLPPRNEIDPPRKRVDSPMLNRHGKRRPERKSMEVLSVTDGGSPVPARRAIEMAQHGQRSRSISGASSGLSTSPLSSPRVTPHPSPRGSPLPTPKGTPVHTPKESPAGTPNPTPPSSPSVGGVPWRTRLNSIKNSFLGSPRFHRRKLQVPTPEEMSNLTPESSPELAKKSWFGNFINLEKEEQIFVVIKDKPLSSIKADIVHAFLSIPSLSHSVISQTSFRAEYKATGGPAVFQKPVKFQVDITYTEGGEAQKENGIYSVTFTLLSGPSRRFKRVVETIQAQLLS"}, "[2]": {"biological_target": "T2, SadB AIS-KA1 fragment (359-715 aa) in psfGFP-C1 (mouse) (UniProt Q5RJI5)", "T2 sequence": "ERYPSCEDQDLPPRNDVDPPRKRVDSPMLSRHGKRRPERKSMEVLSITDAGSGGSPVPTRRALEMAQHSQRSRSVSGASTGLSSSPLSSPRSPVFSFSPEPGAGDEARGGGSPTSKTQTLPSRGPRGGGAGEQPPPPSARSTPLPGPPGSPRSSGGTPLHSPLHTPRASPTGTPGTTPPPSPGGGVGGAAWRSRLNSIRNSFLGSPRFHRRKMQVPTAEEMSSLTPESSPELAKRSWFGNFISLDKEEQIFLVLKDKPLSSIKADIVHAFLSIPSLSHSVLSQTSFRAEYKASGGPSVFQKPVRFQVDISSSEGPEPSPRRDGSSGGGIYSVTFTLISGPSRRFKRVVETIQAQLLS"}, "[3]": {"biological_target": "T3, EGFP-SadB-WT (mouse) (UniProt Q5RJI5)", "T3 sequence": "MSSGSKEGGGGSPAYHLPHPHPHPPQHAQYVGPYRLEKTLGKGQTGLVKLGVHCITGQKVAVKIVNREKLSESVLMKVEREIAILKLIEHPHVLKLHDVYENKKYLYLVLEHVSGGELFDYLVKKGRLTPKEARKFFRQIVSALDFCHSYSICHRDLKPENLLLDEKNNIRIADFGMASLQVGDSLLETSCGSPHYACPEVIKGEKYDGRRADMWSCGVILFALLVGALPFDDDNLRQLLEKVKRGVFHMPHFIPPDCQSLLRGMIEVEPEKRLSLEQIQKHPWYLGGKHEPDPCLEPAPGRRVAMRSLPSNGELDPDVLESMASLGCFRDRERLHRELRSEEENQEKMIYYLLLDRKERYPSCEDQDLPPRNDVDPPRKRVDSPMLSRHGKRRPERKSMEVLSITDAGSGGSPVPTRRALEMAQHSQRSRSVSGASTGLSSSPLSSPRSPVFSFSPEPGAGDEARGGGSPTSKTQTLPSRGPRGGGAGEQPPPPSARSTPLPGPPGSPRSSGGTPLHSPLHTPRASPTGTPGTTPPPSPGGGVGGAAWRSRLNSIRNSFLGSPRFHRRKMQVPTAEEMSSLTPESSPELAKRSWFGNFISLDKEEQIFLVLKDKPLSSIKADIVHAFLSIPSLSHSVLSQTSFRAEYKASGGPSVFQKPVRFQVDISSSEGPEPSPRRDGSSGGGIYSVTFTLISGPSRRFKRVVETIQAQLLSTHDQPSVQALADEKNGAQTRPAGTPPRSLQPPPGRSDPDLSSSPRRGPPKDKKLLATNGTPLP"}, "[4]": {"biological_target": "T4, SadA Kinase-UBA fragment (19-342 aa) in psfGFP-C1 (mouse) (UniProt Q69Z98)", "T4 sequence": "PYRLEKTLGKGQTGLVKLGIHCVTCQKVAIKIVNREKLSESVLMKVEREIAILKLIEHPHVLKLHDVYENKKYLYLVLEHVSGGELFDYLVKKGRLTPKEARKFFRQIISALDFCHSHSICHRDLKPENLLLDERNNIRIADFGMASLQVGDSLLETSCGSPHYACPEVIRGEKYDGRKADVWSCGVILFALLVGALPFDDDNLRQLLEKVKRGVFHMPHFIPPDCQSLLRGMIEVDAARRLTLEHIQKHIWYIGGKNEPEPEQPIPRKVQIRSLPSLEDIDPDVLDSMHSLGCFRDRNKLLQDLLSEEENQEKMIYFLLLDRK"}, "[5]": {"biological_target": "T5, SadB Kinase-UBA fragment (33-358 aa) in psfGFP-C1 (mouse) (UniProt Q5RJI5)", "T5 sequence": "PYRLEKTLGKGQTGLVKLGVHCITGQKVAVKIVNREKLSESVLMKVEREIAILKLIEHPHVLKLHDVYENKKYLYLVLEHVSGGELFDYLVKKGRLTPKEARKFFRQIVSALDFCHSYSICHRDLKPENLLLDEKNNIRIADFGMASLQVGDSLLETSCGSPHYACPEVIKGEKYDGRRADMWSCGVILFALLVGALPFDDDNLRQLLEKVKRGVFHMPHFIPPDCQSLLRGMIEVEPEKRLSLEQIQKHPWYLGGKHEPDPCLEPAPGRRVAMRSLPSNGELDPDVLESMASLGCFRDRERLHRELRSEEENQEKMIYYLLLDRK"}, "[6]": {"biological_target": "T6, EGFP-SadA-WT (mouse) (UniProt Q69Z98)", "T6 sequence": "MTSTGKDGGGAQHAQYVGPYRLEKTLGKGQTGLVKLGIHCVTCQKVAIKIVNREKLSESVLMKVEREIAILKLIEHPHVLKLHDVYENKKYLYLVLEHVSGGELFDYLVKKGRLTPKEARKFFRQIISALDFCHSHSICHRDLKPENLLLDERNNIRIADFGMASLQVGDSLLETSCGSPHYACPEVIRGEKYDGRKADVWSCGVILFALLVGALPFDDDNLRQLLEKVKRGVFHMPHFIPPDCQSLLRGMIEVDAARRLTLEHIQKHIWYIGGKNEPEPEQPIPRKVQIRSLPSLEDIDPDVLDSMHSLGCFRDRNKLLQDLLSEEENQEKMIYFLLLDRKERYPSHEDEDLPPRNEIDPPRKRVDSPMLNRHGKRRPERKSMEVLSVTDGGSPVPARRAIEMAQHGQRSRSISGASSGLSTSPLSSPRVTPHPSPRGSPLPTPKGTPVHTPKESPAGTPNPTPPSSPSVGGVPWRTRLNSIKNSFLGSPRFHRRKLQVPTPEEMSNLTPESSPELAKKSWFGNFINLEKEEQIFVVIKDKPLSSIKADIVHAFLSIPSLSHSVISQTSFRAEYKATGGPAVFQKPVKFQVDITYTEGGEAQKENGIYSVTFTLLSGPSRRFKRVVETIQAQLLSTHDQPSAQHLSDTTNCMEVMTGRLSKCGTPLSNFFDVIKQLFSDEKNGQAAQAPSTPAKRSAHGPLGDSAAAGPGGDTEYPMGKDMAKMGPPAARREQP"}},
  "note": "No constants are given. Whether binding was seen depends on the method and setting. In cells and extracts the contact can be indirect. For part of these data: Binding calls can cover weak binding; strength is not graded here. Sequences can lack the tags named with a protein.",
  "data": [
    {"substance": "HA-AnkB (Ankyrin B, from pAnkyrinB-2HA) (from UniProt Q01484-2)", "values": [
      {"measurement": "binding", "setting": "[1]", "result": "no binding"},
      {"measurement": "binding", "setting": "[2]", "result": "no binding"},
      {"measurement": "binding", "setting": "[3]", "result": "binds"},
      {"measurement": "binding", "setting": "[4]", "result": "binds"},
      {"measurement": "binding", "setting": "[5]", "result": "binds"},
      {"measurement": "binding", "setting": "[6]", "result": "binds"}
    ]}
  ]
}
